{"source": "PubChem BioAssay AID1224830 (NIAID, 2016)", "test": "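Genes whose knock-down alters the TNF-alpha reporter response to LPS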 (primary screen)", "system": "human THP-1 monocytic leukaemia cells, TNF dual-luciferase reporter clone, PMA-differentiated to macrophage-like cells", "reagents": "siRNA pool against human genes, 50 nM", "time to read-out": "LPS for 4 h, given about 3 days after siRNA transfection", "challenge": "bacterial LPS (TLR4 ligand), 10 ng/ml", "measurement": "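TNF firefly reporter luminescence divided by renilla, normalised to the plate median, then turned into a robust z-score for each replicate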", "scale": "TNF reporter robust z-score: higher = stronger TNF reporter response to LPS", "active means": "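Each well counts as active if its z-score is over 2.8 or under -1.5; controls are left without a call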", "note": "The whole screen tested about 18,000 reagents; shown is a random part of them. Over the whole deposit, about 2,900 (16%) are marked active. 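Calls are made per well; low scores hint the gene aids the LPS response, high scores that it dampens it.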 Unmarked entries are inactive. Repeated entries: four replicate wells of each siRNA pool."}
{"Target gene": "ZNF554 (GeneID 115196)", "TNF reporter robust z-score": 1.4}
{"Target gene": "ZNF554 (GeneID 115196)", "TNF reporter robust z-score": 2.28}
{"Target gene": "ZNF554 (GeneID 115196)", "TNF reporter robust z-score": 0.58}
{"Target gene": "ZNF554 (GeneID 115196)", "TNF reporter robust z-score": 0.57}
{"Target gene": "TNPO3 (GeneID 23534)", "TNF reporter robust z-score": -0.25}
{"Target gene": "TNPO3 (GeneID 23534)", "TNF reporter robust z-score": -0.65}
{"Target gene": "TNPO3 (GeneID 23534)", "TNF reporter robust z-score": -0.02}
{"Target gene": "TNPO3 (GeneID 23534)", "TNF reporter robust z-score": -0.14}
{"Target gene": "MLLT3 (GeneID 4300)", "TNF reporter robust z-score": 2.36}
{"Target gene": "MLLT3 (GeneID 4300)", "TNF reporter robust z-score": 1.31}
{"Target gene": "MLLT3 (GeneID 4300)", "TNF reporter robust z-score": 1.68}
{"Target gene": "MLLT3 (GeneID 4300)", "TNF reporter robust z-score": 0.64}
{"Target gene": "ABHD12 (GeneID 26090)", "TNF reporter robust z-score": -0.19}
{"Target gene": "ABHD12 (GeneID 26090)", "TNF reporter robust z-score": -0.63}
{"Target gene": "ABHD12 (GeneID 26090)", "TNF reporter robust z-score": -0.6}
{"Target gene": "ABHD12 (GeneID 26090)", "TNF reporter robust z-score": 1.17}
{"Target gene": "LSM1 (GeneID 27257)", "TNF reporter robust z-score": -0.74}
{"Target gene": "LSM1 (GeneID 27257)", "TNF reporter robust z-score": -0.61}
{"Target gene": "LSM1 (GeneID 27257)", "TNF reporter robust z-score": "-1.53 (active)"}
{"Target gene": "LSM1 (GeneID 27257)", "TNF reporter robust z-score": -0.34}
{"Target gene": "NCBP1 (GeneID 4686)", "TNF reporter robust z-score": "3 (active)"}
{"Target gene": "NCBP1 (GeneID 4686)", "TNF reporter robust z-score": 0.77}
{"Target gene": "NCBP1 (GeneID 4686)", "TNF reporter robust z-score": 0.05}
{"Target gene": "NCBP1 (GeneID 4686)", "TNF reporter robust z-score": 1.21}
{"Target gene": "MEA1 (GeneID 4201)", "TNF reporter robust z-score": 0}
{"Target gene": "MEA1 (GeneID 4201)", "TNF reporter robust z-score": -0.39}
{"Target gene": "MEA1 (GeneID 4201)", "TNF reporter robust z-score": -0.66}
{"Target gene": "MEA1 (GeneID 4201)", "TNF reporter robust z-score": 0.2}
{"Target gene": "TMEM144 (GeneID 55314)", "TNF reporter robust z-score": 0.61}
{"Target gene": "TMEM144 (GeneID 55314)", "TNF reporter robust z-score": -0.1}
{"Target gene": "TMEM144 (GeneID 55314)", "TNF reporter robust z-score": -0.09}
{"Target gene": "TMEM144 (GeneID 55314)", "TNF reporter robust z-score": 0.02}
{"Target gene": "EMC3 (GeneID 55831)", "TNF reporter robust z-score": 0.02}
{"Target gene": "EMC3 (GeneID 55831)", "TNF reporter robust z-score": 1.46}
{"Target gene": "EMC3 (GeneID 55831)", "TNF reporter robust z-score": 0.68}
{"Target gene": "EMC3 (GeneID 55831)", "TNF reporter robust z-score": 1.86}
{"Target gene": "AJM1 (GeneID 389813)", "TNF reporter robust z-score": -0.9}
{"Target gene": "AJM1 (GeneID 389813)", "TNF reporter robust z-score": -0.8}
{"Target gene": "AJM1 (GeneID 389813)", "TNF reporter robust z-score": -0.07}
{"Target gene": "AJM1 (GeneID 389813)", "TNF reporter robust z-score": -0.65}
{"Target gene": "PDILT (GeneID 204474)", "TNF reporter robust z-score": -0.3}
{"Target gene": "PDILT (GeneID 204474)", "TNF reporter robust z-score": 0.6}
{"Target gene": "PDILT (GeneID 204474)", "TNF reporter robust z-score": 0.26}
{"Target gene": "PDILT (GeneID 204474)", "TNF reporter robust z-score": 0.15}
{"Target gene": "POTEE (GeneID 445582)", "TNF reporter robust z-score": -0.8}
{"Target gene": "POTEE (GeneID 445582)", "TNF reporter robust z-score": -0.38}
{"Target gene": "POTEE (GeneID 445582)", "TNF reporter robust z-score": -0.27}
{"Target gene": "POTEE (GeneID 445582)", "TNF reporter robust z-score": -0.13}
{"Target gene": "PRKAR1B (GeneID 5575)", "TNF reporter robust z-score": 1.38}
{"Target gene": "PRKAR1B (GeneID 5575)", "TNF reporter robust z-score": 1.67}
{"Target gene": "PRKAR1B (GeneID 5575)", "TNF reporter robust z-score": 1.6}
{"Target gene": "PRKAR1B (GeneID 5575)", "TNF reporter robust z-score": 1.55}
{"Target gene": "ACP2 (GeneID 53)", "TNF reporter robust z-score": 1.51}
{"Target gene": "ACP2 (GeneID 53)", "TNF reporter robust z-score": 2.11}
{"Target gene": "ACP2 (GeneID 53)", "TNF reporter robust z-score": 2.52}
{"Target gene": "ACP2 (GeneID 53)", "TNF reporter robust z-score": 0.05}
{"Target gene": "CAMP (GeneID 820)", "TNF reporter robust z-score": -1.13}
{"Target gene": "CAMP (GeneID 820)", "TNF reporter robust z-score": -0.4}
{"Target gene": "CAMP (GeneID 820)", "TNF reporter robust z-score": -0.2}
{"Target gene": "CAMP (GeneID 820)", "TNF reporter robust z-score": -0.23}
